From patent publication US20090076278A1, “METHINE DYES AND USES OF THE SAME” (KABUSHIKI KAISHA HAYASHIBARA SEIBUTSU KAGAKU KENKYUJO, priority 2006, published 2009)

Assay: Electric property of optical recording medium (DDU-1000 optical disk evaluation apparatus)
Conditions: 658 nm
Experimental: According to conventional manner, an optical recording medium was prepared by successively multi-layering substrate 1, recording layer 2, reflection layer 3, and protection layer 4 in this order, as shown in FIG. 3. Any one of the methine dyes represented by Chemical Formulae 1 to 3, 8 and 36 in an adequate amount of TFP to give a concentration of 1.6% by weight, and the mixture was heated for awhile, and energized with ultrasonic for dissolution. According to conventional manner, the resulting solution was homogeneously coated over either side of polycarbonate disk substrate 1 (12 cm in diameter, 0.6 mm in thickness) in a rotatory manner and dried to form recording layer 2, made of absorption material, 100 nm in thickness. Thereafter, silver was evaporated unto substrate 1 up to give a layer with 30 to 100 nm in thickness and to form reflection layer 3 to be closely attached to recording layer 2, which was then closely adhered to polycarbonate disk protection layer 4 (12 cm in diameter, 0.6 mm in thickness) to form an optical recording medium for testing. In parallel, except for using the conventionally known methine dye represented by Chemical Formula 65 or 68 in place of the methine dye of the present invention, an optical recording medium as a control was prepared similarly as in the above.
Using “DDU-1000 MODEL”, a commercialized optical disk evaluation apparatus, produced by Pulstech Industries Co., Ltd., Shizuoka, Japan, the seven types of optical recording media were measured for recording sensitivity and electric property (reproduction light power of 0.7 mW) when recorded with test signals of modified 8-16 at a recording light wavelength of 658 nm (NA 0.60) and in data transmission rates of 11.08 Mbps (1× write drive), 44.32 Mbps (4× write drive), and 88.64 Mbps (8× write drive). The results are in Table 3 in parallel.

Structure (SMILES): CCN1C(=CC=CC2=[N+](C)c3ccc4ccccc4c3C2(C)Cc2ccc(CC3(C)C(C=CC=C4N(CC)c5ccc6ccccc6c5C4(C)Cc4ccccc4)=[N+](C)c4ccc5ccccc5c43)cc2)C(C)(Cc2ccccc2)c2c1ccc1ccccc21.F[P-](F)(F)(F)(F)F.F[P-](F)(F)(F)(F)F (stereo not drawn) [Chemical Formula 36]
- 14TM: 14TM Signal modulation rate (1 × write drive (11.08 Mbps)): 0.58
- Jitter: Jitter value (1 × write drive (11.08 Mbps)): 7.4 ns
- PO: Recording power (1 × write drive (11.08 Mbps)): 7.0 mW
- Ref.: Reflection percentage (1 × write drive (11.08 Mbps)): 53%
- 14TM: 14TM Signal modulation rate (4 × write drive (44.32 Mbps)): 0.60
- Jitter: Jitter value (4 × write drive (44.32 Mbps)): 7.0 ns
- PO: Recording power (4 × write drive (44.32 Mbps)): 11.0 mW
- Ref.: Reflection percentage (4 × write drive (44.32 Mbps)): 55%
- 14TM: 14TM Signal modulation rate (8 × write drive (88.64 Mbps)): 0.63
- Jitter: Jitter value (8 × write drive (88.64 Mbps)): 6.7 ns
- PO: Recording power (8 × write drive (88.64 Mbps)): 20.0 mW
- Ref.: Reflection percentage (8 × write drive (88.64 Mbps)): 57%

Structure (SMILES): CCN1C(=CC=CC2=[N+](CC)c3ccc4ccccc4c3C2(C)CCCCC2(C)C(C=CC=C3N(CC)c4ccc5ccccc5c4C34CCCCC4)=[N+](CC)c3ccc4ccccc4c32)C2(CCCCC2)c2c1ccc1ccccc21.F[P-](F)(F)(F)(F)F.F[P-](F)(F)(F)(F)F (stereo not drawn) [Chemical Formula 3]
- 14TM: 14TM Signal modulation rate (1 × write drive (11.08 Mbps)): 0.60
- Jitter: Jitter value (1 × write drive (11.08 Mbps)): 7.8 ns
- PO: Recording power (1 × write drive (11.08 Mbps)): 8.0 mW
- Ref.: Reflection percentage (1 × write drive (11.08 Mbps)): 58%
- 14TM: 14TM Signal modulation rate (4 × write drive (44.32 Mbps)): 0.62
- Jitter: Jitter value (4 × write drive (44.32 Mbps)): 7.1 ns
- PO: Recording power (4 × write drive (44.32 Mbps)): 14.0 mW
- Ref.: Reflection percentage (4 × write drive (44.32 Mbps)): 57%
- 14TM: 14TM Signal modulation rate (8 × write drive (88.64 Mbps)): 0.66
- Jitter: Jitter value (8 × write drive (88.64 Mbps)): 6.8 ns
- PO: Recording power (8 × write drive (88.64 Mbps)): 22.0 mW
- Ref.: Reflection percentage (8 × write drive (88.64 Mbps)): 58%

Structure (SMILES): CCN1C(=CC=CC2=[N+](CC)c3ccc4ccccc4c3C2(C)CCCCCCC2(C)C(C=CC=C3N(CC)c4ccc5ccccc5c4C3(C)C)=[N+](CC)c3ccc4ccccc4c32)C(C)(C)c2c1ccc1ccccc21.F[P-](F)(F)(F)(F)F.F[P-](F)(F)(F)(F)F (stereo not drawn) [Chemical Formula 8]
- 14TM: 14TM Signal modulation rate (1 × write drive (11.08 Mbps)): 0.68
- Jitter: Jitter value (1 × write drive (11.08 Mbps)): 7.6 ns
- PO: Recording power (1 × write drive (11.08 Mbps)): 8.5 mW
- Ref.: Reflection percentage (1 × write drive (11.08 Mbps)): 70%
- 14TM: 14TM Signal modulation rate (4 × write drive (44.32 Mbps)): 0.70
- Jitter: Jitter value (4 × write drive (44.32 Mbps)): 7.5 ns
- PO: Recording power (4 × write drive (44.32 Mbps)): 14.5 mW
- Ref.: Reflection percentage (4 × write drive (44.32 Mbps)): 69%
- 14TM: 14TM Signal modulation rate (8 × write drive (88.64 Mbps)): 0.68
- Jitter: Jitter value (8 × write drive (88.64 Mbps)): 7.5 ns
- PO: Recording power (8 × write drive (88.64 Mbps)): 25.0 mW
- Ref.: Reflection percentage (8 × write drive (88.64 Mbps)): 70%

Structure (SMILES): CCN1C(=CC=CC2=[N+](CC)c3ccc4ccccc4c3C2(C)C)C(C)(C)c2c1ccc1ccccc21 [Chemical Formula 65, reference compound]
- 14TM: 14TM Signal modulation rate (1 × write drive (11.08 Mbps)): 0.68
- Jitter: Jitter value (1 × write drive (11.08 Mbps)): 8.0 ns
- PO: Recording power (1 × write drive (11.08 Mbps)): 12.5 mW
- Ref.: Reflection percentage (1 × write drive (11.08 Mbps)): 72%
- 14TM: 14TM Signal modulation rate (4 × write drive (44.32 Mbps)): 0.68
- Jitter: Jitter value (4 × write drive (44.32 Mbps)): 8.3 ns
- PO: Recording power (4 × write drive (44.32 Mbps)): 24.5 mW
- Ref.: Reflection percentage (4 × write drive (44.32 Mbps)): 71%
- 14TM: 14TM Signal modulation rate (8 × write drive (88.64 Mbps)): 0.69
- Jitter: Jitter value (8 × write drive (88.64 Mbps)): 8.5 ns
- PO: Recording power (8 × write drive (88.64 Mbps)): 36.0 mW
- Ref.: Reflection percentage (8 × write drive (88.64 Mbps)): 71%

Structure (SMILES): CCN1C(=CC=CC2=[N+](CC)c3ccc4ccccc4c3C2(C)CCCCC2(C)C(C=CC=C3N(CC)c4ccc5ccccc5c4C3(C)Cc3ccccc3)=[N+](CC)c3ccc4ccccc4c32)C(C)(Cc2ccccc2)c2c1ccc1ccccc21.F[P-](F)(F)(F)(F)F.F[P-](F)(F)(F)(F)F (stereo not drawn) [Chemical Formula 2]
- 14TM: 14TM Signal modulation rate (1 × write drive (11.08 Mbps)): 0.69
- Jitter: Jitter value (1 × write drive (11.08 Mbps)): 7.4 ns
- PO: Recording power (1 × write drive (11.08 Mbps)): 8.5 mW
- Ref.: Reflection percentage (1 × write drive (11.08 Mbps)): 65%
- 14TM: 14TM Signal modulation rate (4 × write drive (44.32 Mbps)): 0.70
- Jitter: Jitter value (4 × write drive (44.32 Mbps)): 7.5 ns
- PO: Recording power (4 × write drive (44.32 Mbps)): 14.5 mW
- Ref.: Reflection percentage (4 × write drive (44.32 Mbps)): 66%
- 14TM: 14TM Signal modulation rate (8 × write drive (88.64 Mbps)): 0.71
- Jitter: Jitter value (8 × write drive (88.64 Mbps)): 7.2 ns
- PO: Recording power (8 × write drive (88.64 Mbps)): 23.5 mW
- Ref.: Reflection percentage (8 × write drive (88.64 Mbps)): 66%

Structure (SMILES): CCN1C(=CC=CC2=[N+](CC)c3ccc4ccccc4c3C2(C)Cc2ccccc2)C(C)(Cc2ccccc2)c2c1ccc1ccccc21 (stereo not drawn) [Chemical Formula 68, reference compound]
- 14TM: 14TM Signal modulation rate (1 × write drive (11.08 Mbps)): 0.64
- Jitter: Jitter value (1 × write drive (11.08 Mbps)): 7.8 ns
- PO: Recording power (1 × write drive (11.08 Mbps)): 10.5 mW
- Ref.: Reflection percentage (1 × write drive (11.08 Mbps)): 60%
- 14TM: 14TM Signal modulation rate (4 × write drive (44.32 Mbps)): 0.66
- Jitter: Jitter value (4 × write drive (44.32 Mbps)): 7.6 ns
- PO: Recording power (4 × write drive (44.32 Mbps)): 16.5 mW
- Ref.: Reflection percentage (4 × write drive (44.32 Mbps)): 61%
- 14TM: 14TM Signal modulation rate (8 × write drive (88.64 Mbps)): 0.70
- Jitter: Jitter value (8 × write drive (88.64 Mbps)): 7.5 ns
- PO: Recording power (8 × write drive (88.64 Mbps)): 27.0 mW
- Ref.: Reflection percentage (8 × write drive (88.64 Mbps)): 60%
